These are yes or no findings as the source states them, for the method shown. Some binding calls cover weakened binding; strength is not graded here.
Experiments:
[1] = target: recombinant cynomolgus monkey (Macaca fascicularis) TfR1 (cynomolgus monkey (Macaca fascicularis)); assay: thermal stability, binding before and after 9 days at 40 C
[2] = target: recombinant human TfR1 (human) (UniProt P02786); assay: as above

- binding [1]: binds
- binding [2]: binds
B1: humanized anti-TfR Fab 5H12 VH5 (C33Y)/Vκ4 (Fab, V domains shown)
VH: QVQLVQSGAEVKKPGASVKVSCKASGYSFTDYYINWVRQAPGQGLEWMGWIYPGSGNTRYSERFKGRVTITRDTSASTAYMELSSLRSEDTAVYYCAREDYYPYHGMDYWGQGTLVTVSS
VL: DIVMTQSPDSLAVSLGERATINCRASESVDGYDNSFMHWYQQKPGQPPKLLIFRASNLESGVPDRFSGSGSGTDFTLTISSLQAEDVAVYYCQQSSEDPWTFGQGTKLEIKR
